These are yes or no findings as the source states them, for the method shown. Binding seen in cells or lysates may run through a third protein. Some results given as binding are weak or reduced against the parent protein; the word gives no strength.
How the values were obtained:
[1] = molecular target: Notch1 ECD fragment containing EGF repeats 10-21, C-terminal FLAG tag (Homo sapiens (Human)) (UniProt P46531); assay: Ni-NTA pull-down, α-FLAG immunoblot (figure legend)
[2] = molecular target: Notch1 ECD fragment containing EGF repeats 10-21, C-terminal FLAG tag (Homo sapiens (Human)) (UniProt P46531); assay: Ni-NTA pull-down of HIS8 β2 ECD with FLAG-tagged Notch1 fragment, α-FLAG immunoblot
[3] = molecular target: endogenous Notch1 of SW620 cells (human) (UniProt P46531); assay: co-immunoprecipitation, immunoblot with Notch1 polyclonal antibody G20 (figure legend)
[4] = molecular target: endogenous Notch1 of SW620 cells (human) (UniProt P46531); assay: co-immunoprecipitation with α-β2 monoclonal antibodies from full-length β2-transfected SW620 lysates, Notch1 immunoblot

Amino acid sequences for entries named in this document (tags omitted). A change or cut given only in a name is not applied to a line headed by its entry. Residues count along the entry.
UniProt P46531, residues 19-2555: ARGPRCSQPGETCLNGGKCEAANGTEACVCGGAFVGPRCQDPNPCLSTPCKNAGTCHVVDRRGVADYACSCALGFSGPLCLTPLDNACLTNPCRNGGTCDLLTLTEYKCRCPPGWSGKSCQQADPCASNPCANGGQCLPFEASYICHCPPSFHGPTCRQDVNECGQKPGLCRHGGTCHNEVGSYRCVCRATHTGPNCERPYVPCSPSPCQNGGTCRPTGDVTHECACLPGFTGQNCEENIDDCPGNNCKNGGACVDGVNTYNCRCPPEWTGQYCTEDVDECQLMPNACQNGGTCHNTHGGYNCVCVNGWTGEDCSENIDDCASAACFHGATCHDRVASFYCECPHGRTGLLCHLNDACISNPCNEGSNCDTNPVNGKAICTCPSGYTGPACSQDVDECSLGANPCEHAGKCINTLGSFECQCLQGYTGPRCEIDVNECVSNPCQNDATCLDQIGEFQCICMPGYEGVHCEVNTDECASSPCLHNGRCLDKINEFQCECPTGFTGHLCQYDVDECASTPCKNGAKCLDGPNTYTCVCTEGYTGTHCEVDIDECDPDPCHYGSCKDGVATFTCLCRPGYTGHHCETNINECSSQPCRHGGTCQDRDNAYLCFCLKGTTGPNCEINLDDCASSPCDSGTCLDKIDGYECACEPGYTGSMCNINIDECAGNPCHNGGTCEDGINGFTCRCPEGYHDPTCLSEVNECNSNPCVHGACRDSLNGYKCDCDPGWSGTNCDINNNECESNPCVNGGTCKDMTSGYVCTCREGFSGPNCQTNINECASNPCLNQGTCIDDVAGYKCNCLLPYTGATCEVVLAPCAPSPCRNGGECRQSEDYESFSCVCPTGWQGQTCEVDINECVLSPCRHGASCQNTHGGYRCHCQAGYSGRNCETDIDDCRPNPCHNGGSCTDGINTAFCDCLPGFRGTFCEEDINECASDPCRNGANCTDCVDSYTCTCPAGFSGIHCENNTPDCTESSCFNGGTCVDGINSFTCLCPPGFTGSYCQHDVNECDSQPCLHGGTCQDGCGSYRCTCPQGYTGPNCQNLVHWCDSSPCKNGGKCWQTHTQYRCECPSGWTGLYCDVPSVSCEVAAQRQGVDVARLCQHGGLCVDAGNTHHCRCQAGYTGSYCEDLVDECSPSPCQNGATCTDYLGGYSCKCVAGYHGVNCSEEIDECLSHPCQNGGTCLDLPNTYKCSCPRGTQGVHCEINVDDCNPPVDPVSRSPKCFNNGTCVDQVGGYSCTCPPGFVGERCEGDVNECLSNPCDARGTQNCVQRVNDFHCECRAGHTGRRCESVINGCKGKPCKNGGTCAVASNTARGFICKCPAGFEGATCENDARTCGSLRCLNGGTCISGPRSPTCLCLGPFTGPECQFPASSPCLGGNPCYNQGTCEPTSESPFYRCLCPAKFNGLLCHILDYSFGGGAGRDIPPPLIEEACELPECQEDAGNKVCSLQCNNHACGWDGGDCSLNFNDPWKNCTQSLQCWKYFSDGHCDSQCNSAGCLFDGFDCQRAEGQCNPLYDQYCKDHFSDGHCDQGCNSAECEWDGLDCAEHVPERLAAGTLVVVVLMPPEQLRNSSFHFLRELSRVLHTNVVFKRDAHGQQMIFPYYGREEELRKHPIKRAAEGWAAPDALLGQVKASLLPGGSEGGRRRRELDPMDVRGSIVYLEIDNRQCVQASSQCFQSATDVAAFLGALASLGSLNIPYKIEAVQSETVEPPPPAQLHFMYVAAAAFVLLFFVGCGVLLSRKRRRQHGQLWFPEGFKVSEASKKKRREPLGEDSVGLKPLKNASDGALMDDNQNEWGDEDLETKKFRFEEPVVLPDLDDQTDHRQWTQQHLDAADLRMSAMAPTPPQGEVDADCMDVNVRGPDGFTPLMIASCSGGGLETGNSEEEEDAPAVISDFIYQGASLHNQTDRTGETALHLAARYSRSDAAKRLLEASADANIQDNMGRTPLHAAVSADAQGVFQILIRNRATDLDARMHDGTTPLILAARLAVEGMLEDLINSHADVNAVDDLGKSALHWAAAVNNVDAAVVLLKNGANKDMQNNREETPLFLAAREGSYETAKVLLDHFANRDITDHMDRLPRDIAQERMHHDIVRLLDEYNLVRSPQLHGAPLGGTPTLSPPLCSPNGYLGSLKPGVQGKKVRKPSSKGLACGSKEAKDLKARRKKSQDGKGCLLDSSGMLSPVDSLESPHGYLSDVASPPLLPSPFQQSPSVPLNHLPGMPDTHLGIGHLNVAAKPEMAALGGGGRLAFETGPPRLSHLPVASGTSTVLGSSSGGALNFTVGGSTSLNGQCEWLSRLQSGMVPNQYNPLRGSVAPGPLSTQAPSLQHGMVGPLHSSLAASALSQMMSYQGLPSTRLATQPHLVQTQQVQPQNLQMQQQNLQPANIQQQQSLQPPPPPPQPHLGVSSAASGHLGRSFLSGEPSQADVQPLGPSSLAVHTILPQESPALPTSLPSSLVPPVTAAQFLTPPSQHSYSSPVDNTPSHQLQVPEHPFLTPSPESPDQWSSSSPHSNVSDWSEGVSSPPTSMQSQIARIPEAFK
UniProt O60939: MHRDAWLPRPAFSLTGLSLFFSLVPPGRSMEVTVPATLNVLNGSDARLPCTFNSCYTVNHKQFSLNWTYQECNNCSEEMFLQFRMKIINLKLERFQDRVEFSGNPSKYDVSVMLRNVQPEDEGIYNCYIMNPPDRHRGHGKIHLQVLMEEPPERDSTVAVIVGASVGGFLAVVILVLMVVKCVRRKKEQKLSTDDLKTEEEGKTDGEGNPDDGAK

| binding [1] | binding [2] | binding [3] | binding [4] | Substance |
| --- | --- | --- | --- | --- |
| binds | binds |  |  | C-terminal polyhistidine-tagged (HIS8) human β2 ECD (SCN2B.ECD.HIS), secreted from CHO cells (from UniProt O60939 30-159) (ligand) |
|  |  | binds | binds | full-length β2 (SCN2B) expressed in cells (from UniProt O60939 30-215) (ligand) |

From patent US20110182886A1
